For at least one entry, the source does not settle the construct or the ends of the probe. Tags and fusion partners may be left off the protein sequences shown.
Target: T1, hPolεCD (E. coli), catalytic domain of DNA polymerase ε p261, CysX [4Fe-4S] cluster (63% iron) (human) (UniProt Q07864)
T1 sequence (looked up): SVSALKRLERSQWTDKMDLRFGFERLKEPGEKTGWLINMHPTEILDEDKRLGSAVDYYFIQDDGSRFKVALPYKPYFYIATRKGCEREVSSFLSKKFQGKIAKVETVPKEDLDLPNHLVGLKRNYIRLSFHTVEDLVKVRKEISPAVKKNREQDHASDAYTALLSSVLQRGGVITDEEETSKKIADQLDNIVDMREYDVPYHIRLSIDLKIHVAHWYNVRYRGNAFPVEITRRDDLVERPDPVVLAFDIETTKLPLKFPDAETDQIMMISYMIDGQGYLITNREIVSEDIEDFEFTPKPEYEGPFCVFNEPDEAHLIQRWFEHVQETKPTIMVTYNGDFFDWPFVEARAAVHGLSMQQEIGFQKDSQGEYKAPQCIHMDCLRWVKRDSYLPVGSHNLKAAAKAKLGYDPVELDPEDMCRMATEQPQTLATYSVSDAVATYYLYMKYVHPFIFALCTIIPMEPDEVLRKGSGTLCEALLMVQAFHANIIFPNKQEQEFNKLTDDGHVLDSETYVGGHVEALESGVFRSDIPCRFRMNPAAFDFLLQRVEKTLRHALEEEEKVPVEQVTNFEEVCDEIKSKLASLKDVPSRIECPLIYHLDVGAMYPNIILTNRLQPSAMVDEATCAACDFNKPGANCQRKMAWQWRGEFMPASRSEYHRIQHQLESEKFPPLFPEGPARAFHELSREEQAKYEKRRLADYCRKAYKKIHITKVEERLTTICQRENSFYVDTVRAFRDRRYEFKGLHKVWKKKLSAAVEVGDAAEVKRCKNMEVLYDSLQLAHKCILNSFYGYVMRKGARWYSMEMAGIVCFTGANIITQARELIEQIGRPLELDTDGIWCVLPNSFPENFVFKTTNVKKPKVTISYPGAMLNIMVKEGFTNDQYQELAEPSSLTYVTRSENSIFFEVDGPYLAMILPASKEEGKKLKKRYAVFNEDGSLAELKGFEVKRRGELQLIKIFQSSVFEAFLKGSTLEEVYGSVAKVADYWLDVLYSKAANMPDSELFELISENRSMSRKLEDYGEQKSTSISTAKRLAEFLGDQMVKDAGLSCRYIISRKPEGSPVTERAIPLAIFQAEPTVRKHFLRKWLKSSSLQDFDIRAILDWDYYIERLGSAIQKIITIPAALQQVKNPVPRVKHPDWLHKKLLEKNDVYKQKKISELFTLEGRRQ
Assay: BLI
Details: 150 mM NaCl, active enzyme concentration, kon 168 mM-1 s-1, koff 542e-3 s-1; 3'-dideoxycytidine on primer (strand 2); BLI: 30 mM Tris-Hepes pH 7.8, 100 or 150 mM NaCl, 2 mM TCEP, 0.002% Tween 20, 23 °C; recombinant protein; residues 28-1194; label: 5'-biotin-TEG on template (strand 1)

AATACATAAGCGCTCCAGGCAAT / GCCTGGAGCGC [Octet 23-mer template / 11-mer 3'-ddC primer]
Kd: 3.26 µM
